These results are taken from US20250332297A1, “DLL3-SPECIFIC BINDING CONSTRUCTS AND THEIR USE IN RADIOTHERAPY” (MOLECULAR PARTNERS AG, priority 2024, published 2025).

Protein sequences, listed by entry. Tags and fused reporters are not part of them. Residues count along the entry.
UniProt O88516, residues 33-490: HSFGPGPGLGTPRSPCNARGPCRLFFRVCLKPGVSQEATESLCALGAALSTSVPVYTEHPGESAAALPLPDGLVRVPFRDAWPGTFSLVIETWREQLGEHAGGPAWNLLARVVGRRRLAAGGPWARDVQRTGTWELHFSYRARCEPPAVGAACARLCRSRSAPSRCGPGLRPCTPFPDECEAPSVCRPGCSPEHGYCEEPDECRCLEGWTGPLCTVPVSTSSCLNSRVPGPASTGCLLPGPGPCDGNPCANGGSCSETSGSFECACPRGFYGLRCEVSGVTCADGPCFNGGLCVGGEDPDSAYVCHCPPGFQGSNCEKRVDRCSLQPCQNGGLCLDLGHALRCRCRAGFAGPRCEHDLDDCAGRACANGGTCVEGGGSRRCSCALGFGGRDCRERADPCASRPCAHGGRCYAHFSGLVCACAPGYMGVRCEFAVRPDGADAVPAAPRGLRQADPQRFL

No constants are given. Whether binding was seen depends on the method and setting. Some binding calls cover weakened binding; strength is not graded here. For part of these data: Sequences can lack the tags named with a protein.

What all share (test): SPR
Experiment [1] has as its target Cyno DLL3-ECD (extracellular domain of cynomolgus macaque DLL3, residues 27 to 466, Avi-tag, 3C site, Fc knob into hole) (cynomolgus macaque).
Experiment [2] addresses mouse DLL3-ECD (recombinant extracellular domain of mouse DLL3) (mouse) (UniProt O88516).
Experiment [3] concerns the target Dog DLL3-NTD (truncated dog DLL3, N-Terminal Domain, residues 27-189, C-terminal 6xHis and Avi-tag) (dog).

B1: Biotinylated 1D DARPin MAM093 (SEQ ID NO: 1) with a Glycine-Serine (GS) at the N-terminal end (designed binder)
chain: GSDLGKKLLAAAAQGQDDEVRELLKAGANVNAKDLFGYTPLHLAAWRGHLEIVEVLLKAGADVNAKDAAGETPLHLAAWFGHLEIVEVLLKAGADVNAQDLQGKTPADLAAKEGHEDIAEVLQKAA
modifications: biotinylated (site and any tag used not stated)
notes: also called Biotinylated DARPin MAM093
For the molecule B1, the binding entry in experiment [1] and in experiment [2] was “binds” in each case.

B2: MAM279-DOTAM (GS-MAM279-tag, SEQ ID NO: 15, conjugated to the chelator DOTAM) (designed binder)
chain: GSDLGKKLLEAARAGQDDEVRELLKAGADVNAKDYFSHTPLHLAARNGHLKIVEVLLKAGADVNAKDFAGKTPLHLAADAGHLEIVEVLLKAGADVNAQDIFGKTPADIAADAGHEDIAEVLQKAAGSPTPTPTTPTPTPTTPTPTPTGSDLGKKLLAAAAQGQDDEVRELLKAGANVNAKDLFGYTPLHLAAWRGHLEIVEVLLKAGADVNAKDAAGETPLHLAAWFGHLEIVEVLLKAGADVNAQDLQGKTPADLAAKEGHEDIAEVLQKAAGSGSC
notes: also called DOTAM-conjugated MAM279; MAM279 conjugate
B2: the binding entry in experiment [1] and in experiment [3] was “binds” in each case.

B3: Biotinylated 2D DARPin MAM279 (SEQ ID NO: 11) with a Glycine-Serine (GS) at the N-terminal end (designed binder)
chain: GSDLGKKLLEAARAGQDDEVRELLKAGADVNAKDYFSHTPLHLAARNGHLKIVEVLLKAGADVNAKDFAGKTPLHLAADAGHLEIVEVLLKAGADVNAQDIFGKTPADIAADAGHEDIAEVLQKAAGSPTPTPTTPTPTPTTPTPTPTGSDLGKKLLAAAAQGQDDEVRELLKAGANVNAKDLFGYTPLHLAAWRGHLEIVEVLLKAGADVNAKDAAGETPLHLAAWFGHLEIVEVLLKAGADVNAQDLQGKTPADLAAKEGHEDIAEVLQKAA
modifications: biotinylated (site and any tag used not stated)
notes: also called Biotinylated DARPin MAM279
Turning to B3, the binding result in experiment [1] and in experiment [2] was “binds” in each case.
